Measured values: the supplement of paper PMC3334620
Over roughly 33,000 sequences, “E-score (-0.5 to 0.5)” has its median near -0.0034; the highest 2% begin near 0.25. The list shows a part of the results.

Biological target: T1, Yap3 (UniProt P38749)
T1 sequence: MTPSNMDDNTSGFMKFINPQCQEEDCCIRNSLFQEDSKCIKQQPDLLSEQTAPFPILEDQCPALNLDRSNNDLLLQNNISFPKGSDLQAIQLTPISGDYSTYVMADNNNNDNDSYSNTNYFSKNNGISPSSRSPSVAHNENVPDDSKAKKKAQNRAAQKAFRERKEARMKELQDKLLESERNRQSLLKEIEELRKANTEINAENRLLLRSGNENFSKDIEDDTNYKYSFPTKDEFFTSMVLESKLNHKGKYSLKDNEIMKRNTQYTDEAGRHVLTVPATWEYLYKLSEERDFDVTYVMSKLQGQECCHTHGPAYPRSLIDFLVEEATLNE
Assay: PBM E-score (8-mer binding enrichment) (E-score (-0.5 to 0.5)); higher = stronger / more preferred TF binding
Conditions: protein concentration: 100 nM; construct: GST-full length
Procedure, shortened: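 The E-score, a modified Wilcoxon-Mann-Whitney statistic, was computed by the Universal PBM Analysis Suite for every ungapped eight-base word pooled with its reverse complement. Scans behind it were normalised with masliner after bound GST-tagged yeast transcription factors were detected with fluorescent anti-GST. The proteins, at about 100-200 nM, had been applied to universal all-10-mer Agilent arrays made double-stranded by primer extension.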

Sequence | PBM E-score
GCCAACGC | -0.102
AAACAGGA | 0.0526
CGGGTTGC | -0.0878
AAGTCTGT | -0.0052
CTACCGTA | -0.00491
ACCGTTTC | 0.0583
GACCGCCC | -0.104
ATACGAAG | 0.0197
AAATAAAC | 0.178
CCGACAGC | -0.213
GGACGGCA | -0.109
CGGATCGC | 0.0225
GTGTGACA | -0.0405
AATGCGCC | -0.0638
GGAAGGCA | -0.0591
CCATTTTA | 0.222
CGTGGCCA | -0.162
ATAGTAGC | 0.104
AACTTTCT | 0.153
ATTTCTCC | 0.00784
AAGGTGCC | -0.205
GTCCGCGA | 0.00456

As a working copy, some entries already given.
Sequence | PBM E-score
AAACAGGA | 0.0526
CGGGTTGC | -0.0878
AAGTCTGT | -0.0052
CTACCGTA | -0.00491
ACCGTTTC | 0.0583
GACCGCCC | -0.104
ATACGAAG | 0.0197
AAATAAAC | 0.178
CCGACAGC | -0.213
GGACGGCA | -0.109
CGGATCGC | 0.0225
GTGTGACA | -0.0405
AATGCGCC | -0.0638
GGAAGGCA | -0.0591
CCATTTTA | 0.222
CGTGGCCA | -0.162
ATAGTAGC | 0.104
AACTTTCT | 0.153

Later entries

Sequence | PBM E-score
ATCGCCGC | 0.00595
CGACCACG | 0.0614
CTGCAGCC | 0.0213
GTTGATAA | 0.197
GGCCTCCA | -0.167
ACGGCTTC | -0.0647
GAGAATGA | 0.237
ACTTGCCG | 0.00918
ATCGAGTG | 0.119
GGAGCACC | -0.296
AAGCTGAA | -0.022
AGGTTTCG | -0.113
ATCAGGAC | -0.0718
AGTATGGC | -0.107
CTGACAAC | 0.00875
CCGCACTA | 0.0825
CTTCCTAA | -0.011
CCGAACCC | -0.302
CGTGGGAG | -0.272
ACCCCCAT | -0.246
ATATGTCC | 0.0229
CCCTCTCA | -0.319

Sequence | PBM E-score
ACTCGAAG | -0.194
CCCCAAAC | -0.0962
CCCGAGTA | 0.0576
TAATCCAA | 0.24
CTTGATAA | 0.174
GTCAGCAC | -0.0445
ACTCTGTC | -0.0261
ATACTTTC | 0.183
GCCACGAA | -0.226
AAAACAGA | 0.172
CGCTCGCA | -0.00822
ATCACAGA | -0.00218
AGGCAAAA | 0.252
AATTACGC | 0.208
CTGACGGC | -0.281
GGAACTAA | 0.017
AGCCAGAT | -0.0507
GGGCGTGA | -0.0331
CCGAAGAG | -0.0892
GCCGCTTA | 0.0109
AACGGACC | -0.0565
ACCGAGAG | 0.00673

Sequence | PBM E-score
CCAATGAG | -0.0674
AGCTGTCG | -0.197
ACAAGTTC | 0.142
GTCGACAA | -0.0197
TATACAAA | 0.165
CTAGGCGA | -0.0625
GACTTTAC | 0.107
ATTGTTCA | 0.159
AGAAGGAA | -0.126
AGATAGCA | 0.0137
ACGTGTTA | 0.204
AGCGTTAA | 0.0628
ACGGGAAC | -0.0418
CGATAGTA | 0.0352
AGGCCACG | -0.0601
TAGCGCGA | 0.115
CGATTGAA | -0.0897
CTACATGA | -0.149
CTGTTTGC | 0.0947
ACGCACCA | -0.101
